Measured values reported in article PMC11082977.

Protein sequences, listed by entry. Tags and fused reporters are not part of them. Residues count along the entry.
UniProt Q76MJ5, residues 35-926: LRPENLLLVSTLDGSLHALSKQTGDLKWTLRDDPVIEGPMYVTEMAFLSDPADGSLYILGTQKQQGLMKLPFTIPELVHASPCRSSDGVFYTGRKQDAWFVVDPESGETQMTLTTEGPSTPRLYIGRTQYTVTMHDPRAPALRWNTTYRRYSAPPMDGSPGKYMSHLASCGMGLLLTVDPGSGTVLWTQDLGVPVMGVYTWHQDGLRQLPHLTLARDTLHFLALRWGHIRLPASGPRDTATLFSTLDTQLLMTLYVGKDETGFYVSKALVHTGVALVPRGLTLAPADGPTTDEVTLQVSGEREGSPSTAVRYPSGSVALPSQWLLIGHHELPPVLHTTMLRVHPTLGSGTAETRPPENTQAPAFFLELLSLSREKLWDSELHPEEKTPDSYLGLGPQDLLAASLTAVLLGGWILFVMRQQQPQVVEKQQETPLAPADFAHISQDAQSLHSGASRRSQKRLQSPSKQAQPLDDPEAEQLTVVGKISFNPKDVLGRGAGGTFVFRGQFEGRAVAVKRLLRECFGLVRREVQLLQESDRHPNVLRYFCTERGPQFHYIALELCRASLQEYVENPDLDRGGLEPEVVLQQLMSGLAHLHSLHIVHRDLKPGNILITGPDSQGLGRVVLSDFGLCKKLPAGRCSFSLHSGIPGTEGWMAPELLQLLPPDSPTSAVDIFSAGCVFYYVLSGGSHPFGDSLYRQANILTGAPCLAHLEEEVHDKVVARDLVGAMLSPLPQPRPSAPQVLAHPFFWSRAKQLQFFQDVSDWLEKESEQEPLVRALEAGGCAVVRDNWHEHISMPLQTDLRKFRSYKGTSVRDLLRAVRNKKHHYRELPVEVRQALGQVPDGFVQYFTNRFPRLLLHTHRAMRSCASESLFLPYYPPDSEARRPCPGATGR
UniProt O75460, residues 19-977: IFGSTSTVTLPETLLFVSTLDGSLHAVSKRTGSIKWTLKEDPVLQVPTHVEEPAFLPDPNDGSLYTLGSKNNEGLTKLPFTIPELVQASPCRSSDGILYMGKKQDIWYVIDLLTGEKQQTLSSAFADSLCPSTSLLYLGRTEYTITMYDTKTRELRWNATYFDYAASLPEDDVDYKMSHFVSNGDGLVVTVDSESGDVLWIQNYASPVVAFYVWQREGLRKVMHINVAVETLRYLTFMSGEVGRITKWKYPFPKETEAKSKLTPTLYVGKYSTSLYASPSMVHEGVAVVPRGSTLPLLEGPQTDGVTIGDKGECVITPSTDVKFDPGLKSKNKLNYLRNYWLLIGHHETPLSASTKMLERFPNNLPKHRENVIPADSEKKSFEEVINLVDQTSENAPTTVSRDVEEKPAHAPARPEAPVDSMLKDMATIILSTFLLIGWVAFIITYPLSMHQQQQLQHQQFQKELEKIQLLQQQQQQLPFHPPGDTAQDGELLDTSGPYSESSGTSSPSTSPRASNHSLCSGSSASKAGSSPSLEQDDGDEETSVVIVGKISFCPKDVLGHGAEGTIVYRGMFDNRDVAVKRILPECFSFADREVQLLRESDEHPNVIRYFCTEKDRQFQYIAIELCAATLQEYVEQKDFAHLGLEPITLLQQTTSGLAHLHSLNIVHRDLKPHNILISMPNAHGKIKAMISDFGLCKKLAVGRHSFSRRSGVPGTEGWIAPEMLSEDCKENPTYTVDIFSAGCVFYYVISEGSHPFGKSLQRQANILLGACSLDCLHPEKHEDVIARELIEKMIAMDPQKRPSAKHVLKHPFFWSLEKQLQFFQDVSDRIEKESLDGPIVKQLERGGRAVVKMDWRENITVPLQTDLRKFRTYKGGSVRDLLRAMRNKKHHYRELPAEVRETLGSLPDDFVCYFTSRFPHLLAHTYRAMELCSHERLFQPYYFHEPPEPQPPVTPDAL
UniProt Q7KZF4: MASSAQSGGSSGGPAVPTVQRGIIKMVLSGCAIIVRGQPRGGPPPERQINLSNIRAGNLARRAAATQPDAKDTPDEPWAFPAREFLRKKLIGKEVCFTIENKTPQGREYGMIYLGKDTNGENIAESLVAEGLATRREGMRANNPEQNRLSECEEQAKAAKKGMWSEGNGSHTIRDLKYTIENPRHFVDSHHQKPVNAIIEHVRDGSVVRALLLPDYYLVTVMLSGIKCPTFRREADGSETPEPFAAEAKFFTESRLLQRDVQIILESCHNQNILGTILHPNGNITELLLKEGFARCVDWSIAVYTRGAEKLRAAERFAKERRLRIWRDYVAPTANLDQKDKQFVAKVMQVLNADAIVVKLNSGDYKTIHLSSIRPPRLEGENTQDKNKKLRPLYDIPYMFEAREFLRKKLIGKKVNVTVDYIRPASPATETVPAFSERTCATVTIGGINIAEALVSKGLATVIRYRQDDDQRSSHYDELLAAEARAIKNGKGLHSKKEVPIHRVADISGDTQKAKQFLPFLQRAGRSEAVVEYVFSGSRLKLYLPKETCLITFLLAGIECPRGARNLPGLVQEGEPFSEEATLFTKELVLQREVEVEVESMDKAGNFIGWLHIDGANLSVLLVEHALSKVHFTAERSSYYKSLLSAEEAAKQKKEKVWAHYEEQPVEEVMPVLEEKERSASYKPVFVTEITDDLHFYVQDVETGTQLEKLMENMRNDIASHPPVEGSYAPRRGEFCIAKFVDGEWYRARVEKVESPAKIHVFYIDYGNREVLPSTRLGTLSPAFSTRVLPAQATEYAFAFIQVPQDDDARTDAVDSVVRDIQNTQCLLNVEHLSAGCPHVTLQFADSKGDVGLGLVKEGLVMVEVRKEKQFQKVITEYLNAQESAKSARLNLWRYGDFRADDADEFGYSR
UniProt Q9UGP8: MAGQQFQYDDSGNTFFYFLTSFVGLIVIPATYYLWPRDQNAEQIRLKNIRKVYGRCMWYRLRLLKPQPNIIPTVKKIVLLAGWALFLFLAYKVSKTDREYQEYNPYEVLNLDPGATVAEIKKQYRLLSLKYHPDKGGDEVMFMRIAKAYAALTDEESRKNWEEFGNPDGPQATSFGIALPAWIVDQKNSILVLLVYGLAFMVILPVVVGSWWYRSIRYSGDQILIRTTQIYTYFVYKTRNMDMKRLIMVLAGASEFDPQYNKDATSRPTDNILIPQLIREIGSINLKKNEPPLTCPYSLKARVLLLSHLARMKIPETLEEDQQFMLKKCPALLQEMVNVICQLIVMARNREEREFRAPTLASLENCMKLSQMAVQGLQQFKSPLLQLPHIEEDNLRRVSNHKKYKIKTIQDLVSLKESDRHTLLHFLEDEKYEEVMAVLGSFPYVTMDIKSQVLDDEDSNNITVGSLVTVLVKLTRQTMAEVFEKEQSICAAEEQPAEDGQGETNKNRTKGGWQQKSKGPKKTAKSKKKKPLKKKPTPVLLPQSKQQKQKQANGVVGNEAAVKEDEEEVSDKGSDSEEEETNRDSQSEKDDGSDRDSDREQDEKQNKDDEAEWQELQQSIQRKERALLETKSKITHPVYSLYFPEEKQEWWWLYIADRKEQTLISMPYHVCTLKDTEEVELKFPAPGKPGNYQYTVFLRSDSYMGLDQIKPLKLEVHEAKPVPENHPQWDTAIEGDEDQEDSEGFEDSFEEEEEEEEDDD

Experiments:
Assay in all cases: proximity labelling; TurboID on the C-terminus of IRE1α or IRE1β in HMC-1.2 IRE1α−/− cells; DMSO or tunicamycin 2 h, then 500 µM biotin 1 h; RIPA lysis, streptavidin magnetic beads, LC-MS/MS, LFQ against cytosolic V5-TurboID; DMSO and TM groups merged
[1] = molecular target: IRE1β-TurboID (human IRE1β with TurboID fused to its C-terminus) (human) (UniProt Q76MJ5)
[2] = molecular target: IRE1α-TurboID (human IRE1α with TurboID fused to its C-terminus) (human) (UniProt O75460)
[3] = molecular target: IRE1α-TurboID (human IRE1α with TurboID fused to its C-terminus) (human) (UniProt O75460); remark: listed apart in the source
[4] = molecular target: IRE1β-TurboID (human IRE1β with TurboID fused to its C-terminus) (human) (UniProt Q76MJ5); remark: listed apart in the source

Molecule	binding [1]	binding [2]	binding [3]	binding [4]
staphylococcal nuclease domain-containing 1 (SND1), endogenous (from UniProt Q7KZF4 1-910)	no binding	binds	–	–
translocon complex member Sec63, endogenous (from UniProt Q9UGP8 1-760)	–	binds	–	–
valosin-containing protein (VCP), endogenous (from UniProt P55072 1-806)	no binding	binds	–	–
UBXN4, endogenous (protein, UniProt Q92575 1-508) MLWFQGAIPAAIATAKRSGAVFVVFVAGDDEQSTQMAASWEDDKVTEASSNSFVAIKIDTKSEACLQFSQIYPVVCVPSSFFIGDSGIPLEVIAGSVSADELVTRIHKVRQMHLLKSETSVANGSQSESSVSTPSASFEPNNTCENSQSRNAELCEIPPTSDTKSDTATGGESAGHATSSQEPSGCSDQRPAEDLNIRVERLTKKLEERREEKRKEEEQREIKKEIERRKTGKEMLDYKRKQEEELTKRMLEERNREKAEDRAARERIKQQIALDRAERAARFAKTKEEVEAAKAAALLAKQAEMEVKRESYARERSTVARIQFRLPDGSSFTNQFPSDAPLEEARQFAAQTVGNTYGNFSLATMFPRREFTKEDYKKKLLDLELAPSASVVLLPAGRPTASIVHSSSGDIWTLLGTVLYPFLAIWRLISNFLFSNPPPTQTSVRVTSSEPPNPASSSKSEKREPVRKRVLEKRGDDFKKEGKIYRLRTQDDGEDENNTWNGNSTQQM	–	–	binds	–
metadherin (MTDH), endogenous (protein, UniProt Q86UE4 1-582) MAARSWQDELAQQAEEGSARLREMLSVGLGFLRTELGLDLGLEPKRYPGWVILVGTGALGLLLLFLLGYGWAAACAGARKKRRSPPRKREEAAAVPAAAPDDLALLKNLRSEEQKKKNRKKLSEKPKPNGRTVEVAEGEAVRTPQSVTAKQPPEIDKKNEKSKKNKKKSKSDAKAVQNSSRHDGKEVDEGAWETKISHREKRQQRKRDKVLTDSGSLDSTIPGIENTITVTTEQLTTASFPVGSKKNKGDSHLNVQVSNFKSGKGDSTLQVSSGLNENLTVNGGGWNEKSVKLSSQISAGEEKWNSVSPASAGKRKTEPSAWSQDTGDANTNGKDWGRSWSDRSIFSGIGSTAEPVSQSTTSDYQWDVSRNQPYIDDEWSGLNGLSSADPNSDWNAPAEEWGNWVDEERASLLKSQEPIPDDQKVSDDDKEKGEGALPTGKSKKKKKKKKKQGEDNSTAQDTEELEKEIREDLPVNTSKTRPKQEKAFSLKTISTSDPAEVLVKNSQPIKTLPPATSTEPSVILSKSDSDKSSSQVPPILQETDKSKSNTKQNSVPPSQTKSETSWESPKQIKKKKKARRET	–	–	binds	no binding

Read-outs that look alike come from different tables or passages of the source. No constants are given. Whether binding was seen depends on the method and setting. Binding seen in cells or lysates may run through a third protein. A yes stands for co-enrichment or nearness to the bait. Other partners may have been found. For some assays here: No binding means not detected with the bait.
